Consider 1 substance from paper PMC7691401 (EJNMMI Radiopharmacy and Chemistry, 2020).

A short description of the data set: general procedure: peptide synthesis; HBTU/HOBt and DIPEA (HATU/HOBt/DIPEA in the procedure). The settings on record: conjugation step.

In turn, AAZTA^5-Chx-2-Nal-Lys-Urea-Glu returned a conjugation yield of 12%.
